In this assay the target is p21 (human (endogenous in MCF10A)) (UniProt P38936). Nature of the assay: proximity ligation; in situ PLA (DuoLink in situ Orange) on fixed, permeabilized MCF10A cells, endogenous proteins detected by pairs of primary antibodies; untreated and 6 h, 24 h (48 h) after 5-Gy X-ray irradiation; PLA spots per nucleus counted by automated image cytometry (at least 5000 cells).

Sequences of proteins named here, by UniProt entry; tags and fusion partners are left off.
UniProt P38936: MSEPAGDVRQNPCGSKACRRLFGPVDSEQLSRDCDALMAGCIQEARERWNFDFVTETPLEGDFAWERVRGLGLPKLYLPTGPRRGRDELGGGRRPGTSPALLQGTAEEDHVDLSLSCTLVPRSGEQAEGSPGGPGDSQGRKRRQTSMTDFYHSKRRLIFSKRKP
UniProt Q12888: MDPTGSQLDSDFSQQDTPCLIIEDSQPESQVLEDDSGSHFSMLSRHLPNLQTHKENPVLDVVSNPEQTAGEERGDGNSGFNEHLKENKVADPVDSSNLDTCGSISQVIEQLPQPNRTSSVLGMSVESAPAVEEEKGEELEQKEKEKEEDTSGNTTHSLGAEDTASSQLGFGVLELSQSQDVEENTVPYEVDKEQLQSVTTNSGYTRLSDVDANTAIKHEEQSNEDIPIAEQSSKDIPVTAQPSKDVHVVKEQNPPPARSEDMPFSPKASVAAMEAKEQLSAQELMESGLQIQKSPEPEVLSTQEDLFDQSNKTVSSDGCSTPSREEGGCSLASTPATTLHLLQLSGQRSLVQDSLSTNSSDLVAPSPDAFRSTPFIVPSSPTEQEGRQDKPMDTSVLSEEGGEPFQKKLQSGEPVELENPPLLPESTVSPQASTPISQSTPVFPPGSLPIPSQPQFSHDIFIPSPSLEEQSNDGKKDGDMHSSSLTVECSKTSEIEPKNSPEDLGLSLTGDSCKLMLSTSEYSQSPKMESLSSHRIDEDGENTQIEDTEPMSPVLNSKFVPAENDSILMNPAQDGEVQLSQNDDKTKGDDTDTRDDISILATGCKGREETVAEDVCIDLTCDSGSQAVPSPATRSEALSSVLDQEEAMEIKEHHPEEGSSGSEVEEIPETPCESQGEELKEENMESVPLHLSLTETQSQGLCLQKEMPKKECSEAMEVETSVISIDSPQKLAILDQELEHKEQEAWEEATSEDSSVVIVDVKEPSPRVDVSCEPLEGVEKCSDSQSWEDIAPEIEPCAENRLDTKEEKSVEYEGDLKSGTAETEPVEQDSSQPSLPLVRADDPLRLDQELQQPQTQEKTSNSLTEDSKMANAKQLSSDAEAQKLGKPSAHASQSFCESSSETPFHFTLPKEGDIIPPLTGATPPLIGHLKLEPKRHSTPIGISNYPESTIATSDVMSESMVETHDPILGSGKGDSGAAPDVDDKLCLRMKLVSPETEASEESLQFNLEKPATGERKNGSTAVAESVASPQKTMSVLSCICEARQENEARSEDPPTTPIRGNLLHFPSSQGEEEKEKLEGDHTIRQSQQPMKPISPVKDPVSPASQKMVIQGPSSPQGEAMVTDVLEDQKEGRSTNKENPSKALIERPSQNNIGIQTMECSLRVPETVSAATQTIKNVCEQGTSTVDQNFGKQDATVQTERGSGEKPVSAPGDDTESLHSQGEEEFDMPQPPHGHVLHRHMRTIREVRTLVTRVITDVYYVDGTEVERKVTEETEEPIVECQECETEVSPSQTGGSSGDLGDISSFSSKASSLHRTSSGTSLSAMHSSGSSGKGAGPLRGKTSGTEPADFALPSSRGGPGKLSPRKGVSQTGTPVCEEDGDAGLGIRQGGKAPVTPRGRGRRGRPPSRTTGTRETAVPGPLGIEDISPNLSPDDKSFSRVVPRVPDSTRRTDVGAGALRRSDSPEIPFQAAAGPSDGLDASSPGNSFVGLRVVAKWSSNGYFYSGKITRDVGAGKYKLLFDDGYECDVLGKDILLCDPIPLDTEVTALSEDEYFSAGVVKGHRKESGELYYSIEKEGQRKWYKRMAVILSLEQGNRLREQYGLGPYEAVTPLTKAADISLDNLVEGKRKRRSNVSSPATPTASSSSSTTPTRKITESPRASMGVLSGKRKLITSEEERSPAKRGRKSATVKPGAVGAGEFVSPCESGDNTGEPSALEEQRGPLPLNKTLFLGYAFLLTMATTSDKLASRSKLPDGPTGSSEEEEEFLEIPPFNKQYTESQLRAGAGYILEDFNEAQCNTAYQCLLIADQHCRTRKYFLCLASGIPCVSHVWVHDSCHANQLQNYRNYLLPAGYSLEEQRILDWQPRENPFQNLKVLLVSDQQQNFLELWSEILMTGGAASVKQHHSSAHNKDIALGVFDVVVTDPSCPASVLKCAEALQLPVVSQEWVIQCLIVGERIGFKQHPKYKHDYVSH

These are yes or no findings as the source states them, for the method shown. In cells and extracts the contact can be indirect. Some entries that bind do so weakly or less than the wild type.

Turning to “p53 Binding Protein 1 (53BP1) (from UniProt Q12888 1-1972)”, the binding entry is “binds”.

The values above are taken from article PMC9456172.
